Measurements from article PMC3038869.
No constants are given. Whether binding was seen depends on the method and setting. Binding seen in cells or lysates may run through a third protein. Some binding calls cover weakened binding; strength is not graded here.

The chains behind the UniProt entries cited, without tags or fusion partners.
UniProt Q08012: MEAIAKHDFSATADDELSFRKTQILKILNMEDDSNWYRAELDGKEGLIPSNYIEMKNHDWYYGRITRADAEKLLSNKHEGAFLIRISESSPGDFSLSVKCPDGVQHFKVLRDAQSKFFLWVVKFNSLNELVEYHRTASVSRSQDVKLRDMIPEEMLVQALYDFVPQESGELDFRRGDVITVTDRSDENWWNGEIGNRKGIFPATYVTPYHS

Target: T1, Epidermal Growth Factor Receptor (EGFR), Drosophila, endogenous (Drosophila (endogenous in ovaries)) (UniProt P04412)
T1 sequence: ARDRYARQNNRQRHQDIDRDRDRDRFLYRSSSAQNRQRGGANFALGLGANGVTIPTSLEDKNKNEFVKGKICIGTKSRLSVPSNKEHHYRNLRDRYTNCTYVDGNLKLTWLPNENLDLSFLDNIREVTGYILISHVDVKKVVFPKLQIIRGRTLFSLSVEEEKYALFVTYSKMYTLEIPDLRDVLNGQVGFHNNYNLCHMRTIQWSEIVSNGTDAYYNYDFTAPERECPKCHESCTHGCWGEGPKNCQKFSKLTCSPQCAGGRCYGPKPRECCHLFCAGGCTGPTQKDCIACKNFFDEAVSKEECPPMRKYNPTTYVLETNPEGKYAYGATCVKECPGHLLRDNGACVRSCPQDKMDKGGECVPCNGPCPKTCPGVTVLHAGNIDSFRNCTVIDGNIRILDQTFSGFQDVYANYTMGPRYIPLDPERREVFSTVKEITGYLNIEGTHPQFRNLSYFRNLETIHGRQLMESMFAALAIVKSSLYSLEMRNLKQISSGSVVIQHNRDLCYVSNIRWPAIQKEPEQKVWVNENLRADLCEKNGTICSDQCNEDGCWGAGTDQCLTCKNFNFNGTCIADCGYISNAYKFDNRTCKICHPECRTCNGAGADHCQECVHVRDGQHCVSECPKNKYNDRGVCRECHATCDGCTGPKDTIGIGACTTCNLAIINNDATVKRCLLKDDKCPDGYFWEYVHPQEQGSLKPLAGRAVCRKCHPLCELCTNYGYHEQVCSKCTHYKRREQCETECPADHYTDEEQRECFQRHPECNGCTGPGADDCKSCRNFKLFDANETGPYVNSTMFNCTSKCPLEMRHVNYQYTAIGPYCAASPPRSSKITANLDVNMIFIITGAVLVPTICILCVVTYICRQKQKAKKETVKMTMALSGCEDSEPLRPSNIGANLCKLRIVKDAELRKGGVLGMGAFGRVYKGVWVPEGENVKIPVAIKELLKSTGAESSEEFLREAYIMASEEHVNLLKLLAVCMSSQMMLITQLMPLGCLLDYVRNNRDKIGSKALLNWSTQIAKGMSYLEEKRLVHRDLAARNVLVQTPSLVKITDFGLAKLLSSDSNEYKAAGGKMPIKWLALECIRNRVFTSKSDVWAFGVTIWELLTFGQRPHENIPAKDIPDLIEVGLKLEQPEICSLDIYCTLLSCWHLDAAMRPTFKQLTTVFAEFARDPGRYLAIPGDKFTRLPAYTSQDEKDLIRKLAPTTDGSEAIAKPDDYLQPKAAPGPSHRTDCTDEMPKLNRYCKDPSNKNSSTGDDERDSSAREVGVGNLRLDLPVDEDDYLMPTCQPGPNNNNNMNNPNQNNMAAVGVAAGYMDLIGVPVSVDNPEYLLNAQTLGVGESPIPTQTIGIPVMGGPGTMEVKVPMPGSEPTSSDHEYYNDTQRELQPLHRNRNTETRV
Test: co-IP; ovarian lysates of wild-type females or females expressing D-CblL or RING-SH2^Drk in follicle cells, immunoprecipitated with mouse monoclonal anti-EGFR, 4°C; blotted with rabbit anti-EGFR and anti-Drk

Drk (Downstream of receptor kinase), endogenous (from UniProt Q08012 1-211)
binding: binds
